According to the supplement of paper PMC11237882:
The list shows a part of the results. Values are worked out from sequencing counts and are noisy.

T1: Homer1 EVH1 domain
T1 chain: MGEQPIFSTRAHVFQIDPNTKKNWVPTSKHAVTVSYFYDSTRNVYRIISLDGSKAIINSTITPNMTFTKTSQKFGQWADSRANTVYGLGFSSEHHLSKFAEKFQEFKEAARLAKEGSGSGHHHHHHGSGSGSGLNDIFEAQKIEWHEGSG

B1: unnamed (peptide)
chain: AKPVIPTAAKRIDLYARALFPFCFLFFNVIYWSIYL
B2: unnamed (peptide)
chain: MEPAAALHFSRPASLLLLFSLCALVSAQVTVVGPTD
B3: unnamed (peptide)
chain: MALGACGLLLLLAVPGVSLRTLQPGCGRPQVSDAGG
B4: unnamed (peptide)
chain: ETFQTSSIKESTLIPPPPPFEQTFPSLQPGASTLQR
B5: unnamed (peptide)
chain: MSTKPDMIQKCLWLEILMGIFIAGTLSLDCNLLNVH
B6: unnamed (peptide)
chain: ALLSEVIQLMQYVIYGIASFFFLYGIILLAEGFYTT
B7: unnamed (peptide)
chain: QARAAKLSEGSQPAEEEEDQETPSRNLRVRADRNLK
B8: unnamed (peptide)
chain: LNDAYNWEFLIWETALLLFLLRLASLGSETNKKYSN
B9: unnamed (peptide)
chain: IAPKSPLGLFIRKPFIKFICPTASYLTFLFLLLLAS
B10: unnamed (peptide)
chain: VLTGTDSETLGRVAESGLPALLLQCLYLFFVFPLDK
B11: unnamed (peptide)
chain: MRALLALCLLLGWLRWGPAGAQQSGEYCHGWVDVQG
B12: unnamed (peptide)
chain: MSNNGADLTFGYISCFVAILLFGSNFVPLKKFDTGD
B13: unnamed (peptide)
chain: FARLTVSEWLRLLPFLGVLALLGYLAVRPFLPKKKQ
B14: unnamed (peptide)
chain: KFKTSPYFPTTARKLISDFAIILSILIFCVIDALVG
B15: unnamed (peptide)
chain: KDPITIVDVPAHLQNSWESYYLEILMVTGLLAYIMN
B16: unnamed (peptide)
chain: MSKSCGNNLAAISVGISLLLLLVVCGIGCVWHWKHR
B17: unnamed (peptide)
chain: VVTRALMITADILAGFGFLTLLLGLDCVKFLPDEPY
B18: unnamed (peptide)
chain: SSFEDLLANNILRIFVWVIAFITCFGNLFVIGMRSF
B19: unnamed (peptide)
chain: RKEFQKIAMATAIGFAIMGFIGFFVKLIHIPINNII
B20: unnamed (peptide)
chain: PRNLFEQFHRAANLYFLFLVVLNWVPLVEAFQKEIT
B21: unnamed (peptide)
chain: LCTLGLIMGTFTLCWLPFFLANVLRALGGPSLVPGP
B22: unnamed (peptide)
chain: EEGQASQELQTLPRVPALFRRQEEDFLLPETTVMKG
B23: unnamed (peptide)
chain: LEVAAWFILLIFILEILLKWLSNFSVFWKSAWNVFD
B24: unnamed (peptide)
chain: ISMGAFFLTLLSCFYVIGFLLFKNRSCRILHKALSN
B25: unnamed (peptide)
chain: FIILLNIIFLVITLCKMVKHSNTLKPDSSRLENIKS
B26: unnamed (peptide)
chain: MSLQEMFRFPMGLLLGSVLLVASAPATLEPPGCSNK
B27: unnamed (peptide)
chain: RKEPRASGSARPAMLLWPLRGWAARALRCFGPGSRG
B28: unnamed (peptide)
chain: MAEAKTHWLGAALSLIPLIFLISGAEAASFQRNQLL

Biological target: T1, Homer1 EVH1 domain
Assay: enrichment score (AUC of log2 frequency ratio across FACS sorting rounds) (log2 AUC); higher = stronger enrichment for Homer1 EVH1 binding

Binder	enrichment score
B1	1.89
B2	1.99
B3	3.16
B4	6.28
B5	0.58
B6	4.5
B7	-0.746
B8	2.12
B9	3.07
B10	2.5
B11	-0.292
B12	1.29
B13	1.28
B14	-1
B15	3.26
B16	-2.8
B17	0.74
B18	3.59
B19	-0.757
B20	-2.62
B21	2.77
B22	5.46
B23	-1.97
B24	2.34
B25	0.744
B26	2.32
B27	-0.0768
B28	0.887
